According to the supplement of paper PMC10338343:
± gives the standard deviation. Only a part is listed here, and it is no random draw. Many of these values have a large error.

system: MIWI (PIWIL1) piRISC loaded with L1MC piRNA (30 nt); assay: pre-steady-state target cleavage rate (min^-1); MIWI and MILI are mouse PIWI proteins and EfPiwi is from a freshwater sponge; tags in brackets are library labels; higher = faster piRNA-guided slicing of the target; details: guide: L1MC piRNA 5'p-UAACUAAAUACUAUGCAAGCUGUAGGUCCU; auxiliary factor: 500 nM mouse GTSF1
In short: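 Using HEPES–potassium acetate buffer at 33 °C, 1 nM active affinity-purified piRISC with a single synthetic guide was mixed with 0.1 nM transcribed, DNA-blocked target RNA library for 0–8 or 0–960 min, with or without 500 nM GTSF1 partner protein. Uncleaved targets were sequenced and normalised to depth and to weakly complementary targets, and three trials were pooled with k3 capped at 0.0001 min^-1. A burst-and-steady-state fit gave the pre-steady-state cleavage rate.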

Row | Sequence | pre-steady-state target cleavage rate
1 | UCCUGGAUGUGGUUGCAUAGUUUUUAGUUA | 0.00475 ± 0.0052
2 | UCCUGGAUGUCGAACGUAAGUUAUUUAGUUA | 0.000439 ± 0.012
3 | UCCUGGAUGUCGUUGCAUUGUAUUUAGAUA | 0.000188 ± 0.038
4 | UCCUGGAUGUCGAACGUUCGUAUUUAGUUA | 0.000222 ± 0.022

same assay, conditions: guide: L1MC piRNA 5'p-UAACUAAAUACUAUGCAAGCUGUAGGUCCU; auxiliary factor: none (no GTSF1)

Row | Sequence | pre-steady-state target cleavage rate
5 | UCCUGGAUGUCGAACGUAAGUAUUUGUUA | 0.000245 ± 0.02
6 | UGGACCUACAGCUUCGAUAGUAUUUACAAA | 0.00024 ± 0.013
7 | UCGACCUACAGCUUGCAUACAUUUUAGUAA | 0.000818 ± 0.0078
8 | UGGACCUACAGCUUGCAUAGUAAUUUCAAA | 0.000826 ± 0.0068
9 | UCCACCUACAGCUUGCGAUAGUAUUUAGUUA | 0.000792 ± 0.01
10 | UCGACCUACAGCUUGCAUAGUAAAAUCAAA | 0.000289 ± 0.01
11 | UCCUGGAUGUCGAAGCUUAGUAUUUUGUUA | 0.000152 ± 0.012
12 | AGGACCUACAGCUUGCAUUCUAUUUACAAA | 0.000818 ± 0.0095
13 | AGGACCUACAGCUUGCAAUCUAUUUACAAA | 0.000172 ± 0.021
14 | AGGACCUACAGCUUGCAUACAUUUUAGUUA | 0.00126 ± 0.0054
15 | UCCUGGAUGUCGAACGUUAGAUAUUAGUUA | 0.000167 ± 0.032
16 | UGGACCUACAGCUUGCAUAGUAAAAACAAA | 0.000315 ± 0.0096
17 | AGGACCUUGAGCUUGCAUAGUAUUUUCAAA | 0.00212 ± 0.0024
18 | UCCUGGAUGUCGAUGCAUAGUACUUAGUUA | 0.00219 ± 0.0035
19 | AGGACCUACAGGAAGCAUAGUAUUUAGAAA | 0.00129 ± 0.0029
20 | UCCACCUACAGCUAGCAUAGUAUUUUCAAA | 0.000804 ± 0.0078
21 | AGGACCUACAGCUUGCAAUAGUAUUUAGUUA | 0.00226 ± 0.004
22 | AGGACCAUGAGCUUGCAUAGUAUUUUCAAA | 0.00199 ± 0.0036

Row | Sequence | pre-steady-state target cleavage rate
23 | AGGACCUACAGGUUGCAUAGUAUUUUCAAA | 0.00289 ± 0.003
24 | UCCUGGAUGUCGUUGCAUCGUAUUUAGUUA | 0.00124 ± 0.0067
25 | UCCACCUACAGCUUGCAUAGUAUAUAGAAA | 0.00129 ± 0.0049
26 | AGGACCUACAGCUUGCAAUCAUAAAUCAAA [g14:g30:cont:t1A] | 0.000459 ± 0.018
27 | UCCACCUACAGCUUGCAUAGAAUUUACAAA | 0.00199 ± 0.0036
28 | UCGACCUACAGCUUGCAUACAAUUUAGAAA | 0.00132 ± 0.0053
29 | UCGACCUACAGCUUCCAUUGUAUUUAGUUA | 0.00216 ± 0.0025
30 | UCCACCUACAGCUUGCAAUCUAUUUACAAA | 0.000351 ± 0.015
31 | UCCACCUACAGCUUGCAUAGUAAUUAGAAA | 0.00186 ± 0.0034
32 | UCCACCUACAGCUUGGUAAGUAUUUACAAA | 0.000229 ± 0.012
33 | UGGACCUACAGCUUGCAUAGUAAUUACAAA | 0.00111 ± 0.0054
34 | UCCACCUACAGCUUCGAUAGUAUUUUCAAA | 0.000154 ± 0.019
35 | UGGACCUACAGCUUCCAUAGUAAUUAGUUA | 0.00161 ± 0.0031
36 | UCCACCUACAGCUUGCAAUCUAUUUAGAAA | 0.000287 ± 0.0089
37 | UCCACCUACAGCUUGCAUAGUAUUUAUUA | 0.00161 ± 0.0037
38 | UCCACCUAGUGCUUGCAUAGUAUUUUCAAA | 0.00118 ± 0.0025
39 | UCCACCUACAGGAUGCAUAGUAUUUUCAAA | 0.000515 ± 0.01
40 | UCCACCUACUCGUUGCAUAGUAUUUUCAAA | 0.000893 ± 0.0047

Single values from the list:
UCCACCUACAGGAUGCAUAGUAUUUUCAAA – pre-steady-state target cleavage rate: 0.000515 ± 0.01
UCCUGGAUGUCGAUGCAUAGUACUUAGUUA – pre-steady-state target cleavage rate: 0.00219 ± 0.0035
